Measurements: the supplement of paper PMC12823440, “Inhibitors supercharge kinase turnover through native proteolytic circuits” (Nature, 2025)
Structures can show the parent of a compound that is named as a salt. This is one part of the list. The calls rarely recur for the same compound in another form.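 Kinases were expressed as nanoluciferase fusions in K562 cells and luminescence was read every 4 h between 2 and 18 h as percent of control, DMSO set to 100% and a positive control to 0%. A time point counts as decreased when the signal drops significantly (2 sigma). The hit call is the authors' own, does not follow from the count of time points alone, and its rule is not shown.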

By UniProt entry, the sequences of proteins in these tests, tags left out. Where a name states a change or a piece, a line headed by the entry shows the natural chain unless it says otherwise.
UniProt Q16288, whole entry, looked up: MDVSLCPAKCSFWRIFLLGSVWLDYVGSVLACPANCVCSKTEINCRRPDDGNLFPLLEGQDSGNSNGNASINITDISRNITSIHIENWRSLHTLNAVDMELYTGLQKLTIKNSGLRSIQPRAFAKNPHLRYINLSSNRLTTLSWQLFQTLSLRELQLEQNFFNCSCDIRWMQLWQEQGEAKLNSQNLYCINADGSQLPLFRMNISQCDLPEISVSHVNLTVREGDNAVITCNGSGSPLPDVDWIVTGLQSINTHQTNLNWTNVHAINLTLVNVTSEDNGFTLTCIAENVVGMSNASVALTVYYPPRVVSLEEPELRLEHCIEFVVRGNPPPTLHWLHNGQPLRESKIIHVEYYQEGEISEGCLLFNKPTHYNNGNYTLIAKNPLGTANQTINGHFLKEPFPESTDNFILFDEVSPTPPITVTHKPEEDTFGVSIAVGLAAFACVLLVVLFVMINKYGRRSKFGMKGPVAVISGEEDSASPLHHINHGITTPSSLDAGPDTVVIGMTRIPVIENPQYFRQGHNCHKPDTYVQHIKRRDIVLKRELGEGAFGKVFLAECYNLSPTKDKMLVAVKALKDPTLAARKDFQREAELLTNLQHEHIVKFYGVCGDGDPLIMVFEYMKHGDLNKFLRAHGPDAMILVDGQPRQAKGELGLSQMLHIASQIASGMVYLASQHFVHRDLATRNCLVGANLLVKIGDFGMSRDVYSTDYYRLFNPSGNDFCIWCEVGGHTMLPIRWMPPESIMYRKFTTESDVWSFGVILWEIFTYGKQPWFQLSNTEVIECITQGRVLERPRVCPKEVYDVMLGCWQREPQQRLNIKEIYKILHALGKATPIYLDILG
UniProt Q15118, whole entry, looked up: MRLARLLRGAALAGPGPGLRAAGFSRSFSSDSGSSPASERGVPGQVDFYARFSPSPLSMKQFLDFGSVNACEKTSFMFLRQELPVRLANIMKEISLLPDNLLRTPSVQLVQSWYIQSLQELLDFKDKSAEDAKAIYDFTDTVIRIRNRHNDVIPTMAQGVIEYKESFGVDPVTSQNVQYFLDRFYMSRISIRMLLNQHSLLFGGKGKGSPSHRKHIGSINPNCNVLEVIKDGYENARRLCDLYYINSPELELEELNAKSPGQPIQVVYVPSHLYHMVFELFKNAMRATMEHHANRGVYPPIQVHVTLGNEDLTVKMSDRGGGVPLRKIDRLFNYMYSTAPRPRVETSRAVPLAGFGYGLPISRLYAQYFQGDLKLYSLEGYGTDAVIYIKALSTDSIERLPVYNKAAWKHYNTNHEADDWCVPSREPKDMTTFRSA
UniProt O15530: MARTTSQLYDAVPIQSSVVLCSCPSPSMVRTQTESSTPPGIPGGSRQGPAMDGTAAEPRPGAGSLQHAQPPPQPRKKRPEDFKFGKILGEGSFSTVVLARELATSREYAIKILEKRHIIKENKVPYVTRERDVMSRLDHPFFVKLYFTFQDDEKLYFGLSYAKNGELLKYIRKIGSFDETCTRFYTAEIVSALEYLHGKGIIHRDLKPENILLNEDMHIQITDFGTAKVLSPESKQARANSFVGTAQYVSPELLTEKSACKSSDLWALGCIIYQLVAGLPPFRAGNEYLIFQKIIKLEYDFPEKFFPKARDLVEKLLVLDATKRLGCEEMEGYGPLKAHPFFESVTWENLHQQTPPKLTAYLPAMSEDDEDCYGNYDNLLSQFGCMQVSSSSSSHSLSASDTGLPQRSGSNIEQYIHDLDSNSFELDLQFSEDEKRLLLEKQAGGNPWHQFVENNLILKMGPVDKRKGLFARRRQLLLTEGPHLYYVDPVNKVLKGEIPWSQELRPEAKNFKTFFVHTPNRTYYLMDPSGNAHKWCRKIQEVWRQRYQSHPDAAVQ
UniProt Q9UBF8: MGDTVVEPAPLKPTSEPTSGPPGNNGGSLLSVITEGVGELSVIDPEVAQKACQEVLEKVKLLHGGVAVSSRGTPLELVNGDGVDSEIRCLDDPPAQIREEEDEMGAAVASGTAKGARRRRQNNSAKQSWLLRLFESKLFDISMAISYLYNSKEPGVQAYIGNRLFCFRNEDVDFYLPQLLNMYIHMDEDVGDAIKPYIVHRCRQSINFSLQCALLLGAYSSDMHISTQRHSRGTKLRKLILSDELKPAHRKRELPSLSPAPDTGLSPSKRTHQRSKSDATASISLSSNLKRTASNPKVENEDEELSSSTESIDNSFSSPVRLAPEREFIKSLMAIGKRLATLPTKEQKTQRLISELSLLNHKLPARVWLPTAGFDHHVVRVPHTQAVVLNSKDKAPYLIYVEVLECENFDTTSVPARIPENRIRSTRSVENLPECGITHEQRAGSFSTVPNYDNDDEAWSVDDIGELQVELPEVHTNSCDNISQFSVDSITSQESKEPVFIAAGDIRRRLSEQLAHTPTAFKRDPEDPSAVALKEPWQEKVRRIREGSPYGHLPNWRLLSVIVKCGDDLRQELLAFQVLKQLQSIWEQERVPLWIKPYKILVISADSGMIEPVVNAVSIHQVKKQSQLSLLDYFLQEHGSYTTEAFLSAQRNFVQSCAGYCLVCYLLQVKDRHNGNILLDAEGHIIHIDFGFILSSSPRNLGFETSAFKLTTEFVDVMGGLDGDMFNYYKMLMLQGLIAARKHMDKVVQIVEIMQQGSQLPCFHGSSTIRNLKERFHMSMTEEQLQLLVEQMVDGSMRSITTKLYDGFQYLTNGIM
UniProt P53350, whole entry: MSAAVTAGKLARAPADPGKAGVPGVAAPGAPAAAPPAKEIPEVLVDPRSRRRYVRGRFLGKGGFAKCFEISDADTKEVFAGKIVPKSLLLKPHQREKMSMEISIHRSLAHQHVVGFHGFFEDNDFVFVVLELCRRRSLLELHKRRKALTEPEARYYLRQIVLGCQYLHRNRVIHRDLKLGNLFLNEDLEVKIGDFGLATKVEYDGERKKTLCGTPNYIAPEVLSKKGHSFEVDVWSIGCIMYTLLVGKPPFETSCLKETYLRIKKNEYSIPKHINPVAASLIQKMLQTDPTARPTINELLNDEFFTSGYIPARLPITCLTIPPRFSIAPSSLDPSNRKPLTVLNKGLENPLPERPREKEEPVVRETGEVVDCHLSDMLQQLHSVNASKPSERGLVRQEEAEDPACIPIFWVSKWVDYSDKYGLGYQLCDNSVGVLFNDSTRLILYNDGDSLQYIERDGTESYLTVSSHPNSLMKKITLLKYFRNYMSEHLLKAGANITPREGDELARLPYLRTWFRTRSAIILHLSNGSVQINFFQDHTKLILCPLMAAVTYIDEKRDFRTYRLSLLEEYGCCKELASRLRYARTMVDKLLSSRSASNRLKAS
UniProt Q14289, whole entry, looked up: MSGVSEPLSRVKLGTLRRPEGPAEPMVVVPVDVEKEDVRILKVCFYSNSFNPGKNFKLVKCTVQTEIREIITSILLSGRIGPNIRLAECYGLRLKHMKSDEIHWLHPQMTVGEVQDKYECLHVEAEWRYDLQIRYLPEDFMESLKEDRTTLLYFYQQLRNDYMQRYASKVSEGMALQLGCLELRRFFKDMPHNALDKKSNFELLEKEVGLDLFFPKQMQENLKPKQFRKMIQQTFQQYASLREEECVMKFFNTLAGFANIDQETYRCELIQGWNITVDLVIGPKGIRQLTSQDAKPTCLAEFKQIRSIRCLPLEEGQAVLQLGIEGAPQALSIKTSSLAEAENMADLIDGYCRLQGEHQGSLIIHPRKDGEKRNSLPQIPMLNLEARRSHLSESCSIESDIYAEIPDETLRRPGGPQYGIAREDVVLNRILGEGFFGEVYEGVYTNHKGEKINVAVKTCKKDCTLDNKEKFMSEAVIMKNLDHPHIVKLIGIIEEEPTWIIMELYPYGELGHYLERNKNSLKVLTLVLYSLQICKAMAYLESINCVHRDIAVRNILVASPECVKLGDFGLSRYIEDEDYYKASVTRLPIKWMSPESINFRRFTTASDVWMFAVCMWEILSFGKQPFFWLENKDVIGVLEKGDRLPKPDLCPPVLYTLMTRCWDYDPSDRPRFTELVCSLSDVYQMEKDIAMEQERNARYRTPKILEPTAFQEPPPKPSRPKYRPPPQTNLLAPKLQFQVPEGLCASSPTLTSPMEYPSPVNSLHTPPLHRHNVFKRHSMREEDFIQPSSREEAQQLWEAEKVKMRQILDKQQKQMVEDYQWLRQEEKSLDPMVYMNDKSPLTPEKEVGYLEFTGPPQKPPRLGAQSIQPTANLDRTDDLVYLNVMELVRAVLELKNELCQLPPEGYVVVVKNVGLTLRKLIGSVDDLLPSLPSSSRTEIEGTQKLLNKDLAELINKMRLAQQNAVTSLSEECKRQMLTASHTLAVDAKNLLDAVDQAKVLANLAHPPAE
UniProt P07949, whole entry, looked up: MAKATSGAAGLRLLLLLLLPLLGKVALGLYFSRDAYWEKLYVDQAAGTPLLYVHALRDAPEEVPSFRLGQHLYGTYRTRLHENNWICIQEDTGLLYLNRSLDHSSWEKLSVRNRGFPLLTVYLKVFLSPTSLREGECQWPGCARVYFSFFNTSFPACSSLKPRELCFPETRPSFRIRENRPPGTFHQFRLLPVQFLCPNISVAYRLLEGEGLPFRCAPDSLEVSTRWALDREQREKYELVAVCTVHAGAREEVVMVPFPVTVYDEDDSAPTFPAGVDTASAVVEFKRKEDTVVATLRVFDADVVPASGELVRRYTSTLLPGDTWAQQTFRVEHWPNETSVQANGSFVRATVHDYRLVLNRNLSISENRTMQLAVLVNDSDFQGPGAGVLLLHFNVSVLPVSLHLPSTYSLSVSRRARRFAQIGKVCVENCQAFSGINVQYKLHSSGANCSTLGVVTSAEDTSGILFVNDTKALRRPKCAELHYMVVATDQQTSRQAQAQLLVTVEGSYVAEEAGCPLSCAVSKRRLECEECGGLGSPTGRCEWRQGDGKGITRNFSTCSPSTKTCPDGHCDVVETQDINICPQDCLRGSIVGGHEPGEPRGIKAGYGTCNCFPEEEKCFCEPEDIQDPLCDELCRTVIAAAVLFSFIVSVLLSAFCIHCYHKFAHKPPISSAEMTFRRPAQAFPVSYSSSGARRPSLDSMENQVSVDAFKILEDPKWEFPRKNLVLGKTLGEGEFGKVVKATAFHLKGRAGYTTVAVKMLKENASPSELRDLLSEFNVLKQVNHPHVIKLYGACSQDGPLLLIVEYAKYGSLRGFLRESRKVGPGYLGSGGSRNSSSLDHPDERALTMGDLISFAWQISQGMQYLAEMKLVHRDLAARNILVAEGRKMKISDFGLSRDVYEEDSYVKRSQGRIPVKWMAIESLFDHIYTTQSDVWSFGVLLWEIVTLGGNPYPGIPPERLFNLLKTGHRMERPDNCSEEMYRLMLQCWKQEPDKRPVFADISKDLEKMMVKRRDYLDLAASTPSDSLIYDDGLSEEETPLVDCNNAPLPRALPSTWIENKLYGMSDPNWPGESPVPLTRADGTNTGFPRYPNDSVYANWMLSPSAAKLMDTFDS
UniProt P07949, whole entry M918T, looked up: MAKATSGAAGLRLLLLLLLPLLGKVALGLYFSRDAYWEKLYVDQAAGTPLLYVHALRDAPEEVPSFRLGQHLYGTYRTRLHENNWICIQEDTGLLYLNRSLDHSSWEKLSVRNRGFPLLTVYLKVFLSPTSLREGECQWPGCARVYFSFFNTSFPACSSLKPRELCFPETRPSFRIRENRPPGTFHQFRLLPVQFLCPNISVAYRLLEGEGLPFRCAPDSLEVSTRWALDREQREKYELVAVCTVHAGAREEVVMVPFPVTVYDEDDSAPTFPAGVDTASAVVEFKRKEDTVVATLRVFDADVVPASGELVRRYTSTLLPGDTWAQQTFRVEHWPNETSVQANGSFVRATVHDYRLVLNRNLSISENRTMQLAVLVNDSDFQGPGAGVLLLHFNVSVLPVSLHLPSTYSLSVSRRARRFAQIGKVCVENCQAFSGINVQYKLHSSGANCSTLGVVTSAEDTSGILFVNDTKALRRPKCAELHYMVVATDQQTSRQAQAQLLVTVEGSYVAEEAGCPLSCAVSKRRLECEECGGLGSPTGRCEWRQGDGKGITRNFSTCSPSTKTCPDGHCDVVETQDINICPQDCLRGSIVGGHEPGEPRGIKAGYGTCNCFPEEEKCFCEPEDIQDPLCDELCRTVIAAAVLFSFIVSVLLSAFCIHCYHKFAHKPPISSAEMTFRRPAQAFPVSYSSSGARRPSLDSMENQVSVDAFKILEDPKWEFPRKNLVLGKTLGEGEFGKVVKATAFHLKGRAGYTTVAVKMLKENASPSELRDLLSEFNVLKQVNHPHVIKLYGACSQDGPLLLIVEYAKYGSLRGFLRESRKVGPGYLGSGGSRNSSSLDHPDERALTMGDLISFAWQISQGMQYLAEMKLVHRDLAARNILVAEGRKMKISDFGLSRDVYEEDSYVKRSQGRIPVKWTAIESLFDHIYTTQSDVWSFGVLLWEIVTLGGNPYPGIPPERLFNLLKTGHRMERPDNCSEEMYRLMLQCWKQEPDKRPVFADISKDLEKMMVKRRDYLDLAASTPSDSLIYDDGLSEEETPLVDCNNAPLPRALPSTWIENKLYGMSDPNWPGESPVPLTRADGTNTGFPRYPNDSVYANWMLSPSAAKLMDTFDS

How the values were obtained:
Assay in all cases: number of time points (of 5) at which kinase-Nluc abundance scored as decreased, DMSO-normalised (count); higher = more persistent destabilization
Settings in all cases: K562; 2-18 h
NTRK3 = NTRK3 (UniProt Q16288)
PAK4 = PAK4 (UniProt O96013)
PBK = PBK (UniProt Q96KB5)
PDGFRB = PDGFRB (UniProt P09619)
PDK1 = PDK1 (UniProt Q15118)
PDPK1 = PDPK1 (UniProt O15530)
PIK4CA = PIK4CA (UniProt P42356)
PIK4CB = PIK4CB (UniProt Q9UBF8)
PLK1 = PLK1 (UniProt P53350)
PRKAA1 = PRKAA1 (UniProt Q13131)
PRKCA = PRKCA (UniProt P17252)
PTK2 = PTK2 (UniProt Q05397)
PTK2B = PTK2B (UniProt Q14289)
RAF1 = RAF1 (UniProt P04049)
[1] = molecular target: RAF1_S257L (clone: RAF1_mut) (UniProt P04049)
RET = RET (UniProt P07949)
[2] = molecular target: RET_M918T (clone: RET_mut) (UniProt P07949)
RIOK1 = RIOK1 (UniProt Q9BRS2)
RIPK1 = RIPK1 (UniProt Q13546)
RIPK2 = RIPK2 (UniProt O43353)

Compound	number of time points (NTRK3)	number of time points (PAK4)	number of time points (PBK)	number of time points (PDGFRB)	number of time points (PDK1)	number of time points (PDPK1)	number of time points (PIK4CA)	number of time points (PIK4CB)	number of time points (PLK1)	number of time points (PRKAA1)	number of time points (PRKCA)	number of time points (PTK2)	number of time points (PTK2B)	number of time points (RAF1)	number of time points [1]	number of time points (RET)	number of time points [2]	number of time points (RIOK1)	number of time points (RIPK1)	number of time points (RIPK2)
C=CC(=O)Nc1cc(Nc2nccc(-c3cn(C)c4ccccc34)n2)c(OC)cc1N(C)CCNC [AZ7550 Mesylate] (2.5 µM)	0	0	0	0	0	1	0	0	0	0	0	0	0	0	1	0	0	0	0	0
Cc1cccc(/C=N/Nc2cc(N3CCOCC3)n3nc(-c4ccncc4)cc3n2)c1 (10 µM)	0	0	0	0	0	0	0	0	0	0	1	0	0	0	0	0	0	0	0	0
O=Nc1c(-c2c(O)[nH]c3cc(Br)ccc23)[nH]c2ccccc12 [GSK 3 Inhibitor IX] (2.5 µM)	0	0	0	0	0	0	0	0	0	0	0	1	0	0	0	4	1	0	0	0
Cc1cc(CSc2ccccc2C(=O)NCCNc2ccc(C(F)(F)F)cc2[N+](=O)[O-])on1 (10 µM)	0	0	0	0	0	0	0	0	0	0	0	0	0	0	0	0	0	0	0	0
Nc1ncc(C(=O)NC2CN(C(=O)C3CC3)C2)c2ccc(-c3cccc(F)c3)nc12 (2 µM)	0	0	0	0	0	0	0	0	0	0	0	0	0	0	0	0	0	0	0	0
C=C1C(=O)[C@@]23[C@H](O)C[C@@H]4C(C)(C)C(=O)CC[C@@]4(C)[C@@H]2CC[C@@H]1[C@H]3O [Glaucocalyxin A] (2.5 µM)	0	0	0	0	0	0	0	0	0	0	0	0	0	0	0	0	0	0	2	0
COc1cc2c(cc1Nc1ncc(C(N)=O)c(Nc3c(F)cccc3C(F)(F)F)n1)CN(C)CC2 (2.5 µM)	0	0	0	0	0	0	0	0	0	0	0	0	0	0	0	0	0	0	0	0
Nc1nc(NCCNc2ncc(-n3ccnc3)c(-c3ccc(Cl)cc3Cl)n2)ccc1[N+](=O)[O-] (2.5 µM)	0	0	0	0	0	0	0	0	0	0	0	0	0	0	0	0	0	0	0	0
Cc1cc(C)cc(NC(N)=Nc2ccccc2C(F)(F)F)c1 (10 µM)	0	0	0	0	0	0	0	0	0	0	0	0	0	0	0	0	0	0	0	0
Cc1cc([C@@H](C)Nc2ccccc2C(=O)O)c2nc(N3CCOCC3)cc(=O)n2c1 (10 µM)	0	0	0	0	0	0	0	0	0	0	0	0	0	0	0	0	0	0	0	0
CCCCCC(=O)N[C@@H](Cc1ccc(O)cc1)C(=O)OC (10 µM)	0	0	0	0	0	0	0	0	0	0	0	0	0	0	0	0	0	0	0	0
NC(=O)c1ccc(N(C(N)=O)c2c(F)cccc2F)nc1-c1ccc(F)cc1F (10 µM)	0	0	0	0	0	0	0	0	0	0	0	0	0	0	0	0	0	0	0	0
C=CC(=O)Nc1cccc(Oc2nc(Nc3ccc(N4CCN(C)CC4)c(F)c3)nc3[nH]ccc23)c1 [Avitinib (maleate)] (2.5 µM)	0	0	0	0	0	0	0	0	0	0	0	0	0	0	0	0	0	0	0	0
Cc1cc(C(=O)NC(C)(C)C)cc(C#Cc2ccc3c4c(oc3c2)C(C)(C)c2cc(NS(C)(=O)=O)ccc2C4=O)n1 (10 µM)	0	0	0	0	0	0	0	0	0	0	0	0	0	0	0	0	0	0	0	0
COc1cc2c(cc1O)C[C@H]1c3cc(O)c(OC)cc3CC[N@@+]1(C)C2 [Phellodendrine] (10 µM)	0	0	0	0	0	0	0	0	0	0	0	0	0	0	0	0	0	0	0	0
Cc1cnc(NC(=O)c2cc(Oc3cnc(C(=O)N(C)C)nc3)c3cc(C)oc3c2)cn1 (10 µM)	0	0	0	0	0	0	0	0	0	0	0	0	0	0	0	0	0	0	0	0
CCC(=O)Nc1cccc(Oc2nc(Nc3ccc(N4CCN(C)CC4)cc3OC)ncc2Cl)c1 (10 µM)	0	0	0	0	0	0	0	1	0	0	0	0	0	0	0	0	0	0	0	0

Random excerpt: 2 entries already listed, in no set order.
Compound	number of time points (NTRK3)	number of time points (PAK4)	number of time points (PBK)	number of time points (PDGFRB)	number of time points (PDK1)	number of time points (PDPK1)	number of time points (PIK4CA)	number of time points (PIK4CB)	number of time points (PLK1)	number of time points (PRKAA1)	number of time points (PRKCA)	number of time points (PTK2)	number of time points (PTK2B)	number of time points (RAF1)	number of time points [1]	number of time points (RET)	number of time points [2]	number of time points (RIOK1)	number of time points (RIPK1)	number of time points (RIPK2)
Nc1ncc(C(=O)NC2CN(C(=O)C3CC3)C2)c2ccc(-c3cccc(F)c3)nc12 (2 µM)	0	0	0	0	0	0	0	0	0	0	0	0	0	0	0	0	0	0	0	0
Cc1cc(CSc2ccccc2C(=O)NCCNc2ccc(C(F)(F)F)cc2[N+](=O)[O-])on1 (10 µM)	0	0	0	0	0	0	0	0	0	0	0	0	0	0	0	0	0	0	0	0
